Source: US20140323457A1, “BETA-O/S/N FATTY ACID BASED COMPOUNDS AS ANTIBACTERIAL AND ANTIPROTOZOAL AGENTS” (LUDWIG-MAXIMILIANS-UNIVERSITÄT MÜNCHEN, priority 2011, published 2014)
Some results were stated once for a whole list of compounds, not compound by compound. For at least one compound, name, drawing or mass did not settle the structure.

Test system: S. aureus strain NCTC 8325
Assay: minimal inhibiting concentration (MIC) in liquid bacterial culture
Assay type: cell-based
Conditions: overnight 37° C.
Procedure: 1 ml of an appropriate bacterial broth for the standard laboratory S. aureus strain NCTC 8325 were inoculated with 1*10^6 cfu. The cultures were kept overnight at 37° C. with gentle shaking 300 rpm in the presence of compounds AVU1Acid, AVU1AAc, AVU1AA or VK273 according to the present invention at different concentrations or dimethyl sulfoxide (DMSO) as control. Different beta-lactone virulence inhibitors were used as reference compounds. Following overnight incubation the optical density was measured in order to determine the minimal inhibiting concentration (MIC), which is defined as the lowest concentration of an antimicrobial that will inhibit the visible growth of a microorganism after overnight incubation. A 100 μl fraction of the supernatant of the grown bacterial cultures was subsequently analysed for the content of secreted bacterial hemolysins by addition of sheep red blood cells (10% v/v in PBS) and the measurement of the optical density at 410 nm after 30 min incubation at 37° C.

Structure (SMILES): C#CCCCCCCC[C@H](C(=O)OC)[C@H](O)CCc1ccc(C2(C(F)(F)F)N=N2)cc1 (relative stereo) [JS-14_1, Methyl (3R*,2S*)-3-Hydroxy-2-(8-noninyl)-5-(4-(3-trifluoromethyl-3H-diazirinyl)-phenyl)-pentanoate]
- MIC (Assay 4, listed as JS-14—1): > 1000 µM

Structure (SMILES): C#CCCCCCCC[C@H](C(N)=O)[C@H](O)CCc1ccc(C2(C(F)(F)F)N=N2)cc1 (relative stereo) [JS-14_1Amid, (3R*,2S*)-3-Hydroxy-2-(8-noninyl)-5-(4-(3-trifluoromethyl-3H-diazirinyl)-phenyl)-pentanamide]
- MIC (Assay 4, listed as JS-14—1 Amid): > 1000 µM

Structure (SMILES): C#CCCCCCCC[C@@H](C(=O)OC)[C@H](O)CCc1ccc(C2(C(F)(F)F)N=N2)cc1 (relative stereo) [JS-14_2, Methyl (3R*,2R*)-3-Hydroxy-2-(8-noninyl)-5-(4-(3-trifluoromethyl-3H-diazirinyl)-phenyl)-pentanoate]
- MIC (Assay 4, listed as JS-14—2): > 1000 µM

Structure (SMILES): C#CCCCCCCC[C@@H](C(N)=O)[C@H](O)CCc1ccc(C2(C(F)(F)F)N=N2)cc1 (relative stereo) [JS-14_2Amid, (3R*,2R*)-3-Hydroxy-2-(8-noninyl)-5-(4-(3-trifluoromethyl-3H-diazirinyl)-phenyl)-pentanamide]
- MIC (Assay 4, listed as JS-14—2 Amid): > 1000 µM

Structure (SMILES): C#CCCCCCCCC(C(=O)O)C(O)CCc1ccc(C(=O)c2ccccc2)cc1 (stereo not shown) [JS-64, 5-(4-Benzoylphenyl)-3-hydroxy-2-(8-noninyl)-pentanoic acid]
- MIC (Assay 2): > 1000 µM

Structure (SMILES): C#CCCCCCCCC(C(N)=O)C(O)CCc1ccc(C(=O)c2ccccc2)cc1 (stereo not shown) [JS-65, 5-(4-Benzoylphenyl)-3-hydroxy-2-(8-noninyl)-pentanamide]
- MIC (Assay 2): > 1000 µM

Structure (SMILES): C=CCCCCCCCC(CO)C(O)CCc1ccccc1 (stereo not shown) [VK273, 2-(non-8-enyl)-5-phenylpentandiol-1,3]
- MIC (Assay 1): > 1000 µM
